Measurements as given in patent US6989396B2, “Tropane alkaloid multidrug resistance inhibitors from Erythroxylum pervillei and use of the same” (The Board of Trustees of the University of Illinois, priority 2001, dated 2006).

System: KB-3 cells
Assay: Growth inhibitory potential (sulforhodamine B cell survival assay): KB-3
Assay type: cell-based
Details: Homo sapiens, KB3, 72 h, read-out: IC50 KB-3
Experimental: One part of a natural product drug discovery program involves monitoring the potential of plant extracts to reverse multiple drug resistance. […] To investigate the potential of plant extracts or compounds to reverse multidrug-resistance, KB-V1 cells are treated with different concentrations of plant extracts or compounds in the presence (1 μg/ml) or absence of vinblastine. […] Therefore, KB-3 cells serve as a control to differentiate between nonspecific cytotoxicity and selective MDR antagonism.
Cytotoxic potential. The cytotoxic potential of test substances with KB-3, KB-V1 and KB-8-5 cells was determined as described previously (24). Briefly, various concentrations of test compounds (dissolved in 10 μl of 10% DMSO) were transferred to 96-well plates, and 190 μl aliquots of cell suspensions (5×10^4 cells/ml) were added to each well. […] Finally, 200 μl of 10 mM Tris base were added to each well and the optical densities were determined at 515 nm utilizing an ELISA plate reader. […] Optical density values obtained with the zero-day control were subtracted, and cell survival, relative to control (solvent-treated) cultures, was calculated. The cytotoxic potential of the compounds with CEM and CEM/VLB100 cells was determined as described by Beck et al. (30). […] At 48 hours, the cell number was determined using a Coulter Counter, with a channelizer to distinguish cells from debris.

`COc1cc2c(c(OC)c1OC)-c1ccc(OC)c(=O)cc1[C@@H](NC(C)=O)CC2` [colchicine, reference compound] showed an IC50 of 50 nM.
